Here are results for one molecule from patent US20210230263A1.

These are yes or no findings as the source states them, for the method shown. Some entries that bind do so weakly or less than the wild type.

The target in one experiment is T1, mouse IL-22 (mouse) (UniProt Q9JJY9).
T1 sequence (looked up): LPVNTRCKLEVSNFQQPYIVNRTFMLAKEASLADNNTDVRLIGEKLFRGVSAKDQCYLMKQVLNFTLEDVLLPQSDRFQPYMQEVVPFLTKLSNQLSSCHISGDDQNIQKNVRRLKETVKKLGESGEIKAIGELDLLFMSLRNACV
The experiment in a line: ELISA on coated antigen (1 ug/ml), antibody at 100 ng/ml, detection with anti-hIgG-HRP, OD450. For orientation: ELISA stands for enzyme-linked immunosorbent assay.

For a further experiment, the target named is T2, human IL-22 (human) (UniProt Q9GZX6).
T2 sequence (looked up): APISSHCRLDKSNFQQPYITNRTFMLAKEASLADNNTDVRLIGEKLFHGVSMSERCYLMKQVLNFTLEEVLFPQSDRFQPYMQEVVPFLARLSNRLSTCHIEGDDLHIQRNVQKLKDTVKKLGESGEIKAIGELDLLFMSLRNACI
Described as above.

B1: CPE-LC-E049K (antibody, V domains shown)
VH: QVQLVQSGAEVKKPGASVKVSCKASGYIFTSYWIHWIRQPPGKGLEWIGRIYPGTGNTYYNEKFKGRVTISADKSISTAYLQWSSLKASDTAMYYCARSYDSSCAYWGQGTLVTVSS
VL: AIQLTQSPSSLSASVGDRVTITCSASSSVSYMHWYLQKPGQSPQLLIYKTSKLASGVPSRFSGSGSGTDFTFTISSLEAEDAATYYCQQWSSNPYITFGQGTKVEIKR
In the case of B1, the binding entry with mouse IL-22 (mouse) and with human IL-22 (human) was “binds” throughout.
